Experimental data: PubChem BioAssay AID504834 (National Center for Advancing Translational Sciences (NCATS), 2011)
Screen size: about 320,000 compounds; about 22,000 (6.9%) were called active. Inconclusive results, whose numbers are uncertain, are shown with a selection of clear calls. The call rests on the fitted dose curve; in most records, active means well fitted inhibition curve with a large enough effect; inconclusive means small, poorly fitted or top-dose-only effect, or another doubt; inactive means no such curve, though single readings can be large or run the other way. Where the call is inconclusive, the potency comes from a doubtful curve fit.

Test: Primary qHTS for delayed death inhibitors of the malarial parasite plastid, 96 hour incubation
Conditions: P. falciparum luciferase reporter growth; series mostly up to 28.7 µM
Summary of the method: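 Erythrocytes infected with luciferase-expressing P. falciparum were dispensed at 2% hematocrit and 0.05% parasitemia (final), then incubated with compounds 96 hours at 37 C in 5% CO2. Luminescence after detection reagent addition reported growth.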
On the % scale 0 is the no-effect control and ±100 the full control effect; potency means the concentration at half of the fitted maximal effect.

Row | SMILES | Potency | activity change, negative = inhibition
1 | CCOC(=O)C1CCCN(S(=O)(=O)c2ccc(S(=O)(=O)N(CC)CC)cc2)C1 (centres undefined) | inactive | –
2 | Cc1cc(NC(=O)CSc2ccc(Cl)cc2)no1 | inconclusive: 18.5 µM [inhibitor, single point] | –
3 | COc1ccc(NC(=S)N2CCCC2)cc1 | inactive | –
4 | O=C(O)c1ccccc1C(=O)Nc1nc(-c2ccccc2)cs1 | inactive | –
5 | O=C(CNc1ccccc1)Nc1cccc2ccccc12 | inconclusive: 18.5 µM [inhibitor, single point] | –
6 | CCc1ccc(-c2cn3nc(C)c(C)nc3n2)cc1 | inactive | –
7 | CCOC(=O)COc1cc(O)c2c(=O)cc(-c3ccccc3)oc2c1 | inconclusive: 16.5 µM [inhibitor, single point] | –
8 | O=C(NCCN1CCOCC1)c1ccc2c(c1)N(Cc1ccccc1F)C(=O)CS2 | inconclusive: 13.1 µM [inhibitor, single point] | –
9 | COc1cccc(C(=O)Nc2ccc(NC(=O)C3C4C=CC(C4)C3C(=O)O)cc2)c1 (centres undefined) | inactive | –
10 | Cc1sc2ncnc(N3CCC(C(=O)NNC(=O)c4ccc(F)cc4)CC3)c2c1C | inconclusive: 0.0066 µM [inhibitor, full curve] | –
11 | COc1ccc(CCN(C)C(=O)c2cc(=O)c3ccccc3o2)cc1OC | inactive | –
12 | COc1ccc(S(=O)(=O)N2CCN(S(=O)(=O)c3ccc(C(F)(F)F)cc3)CC2)cc1C | active: 11.7 µM | –
13 | O=S(=O)(/N=C/N1CCOCC1)c1ccc(Cl)cc1 | inconclusive: 0.0828 µM [inhibitor, full curve, poor fit] | –
14 | COc1ccc(CNC(=O)[C@@H](NC(=O)C2CCN(C(=O)[C@@H](N)Cc3ccccc3)CC2)C(C)C)cc1 | inactive | –
15 | Cc1ccc(N2CC(C(=O)Nc3nnc(SCCC4OCCO4)s3)CC2=O)cc1C (centres undefined) | inconclusive: 5.86 µM [inhibitor, partial curve] | –
16 | COc1ccccc1N1CCN(C(=O)c2ccc3c(c2)CCN3S(C)(=O)=O)CC1 | inconclusive: 10.4 µM [inhibitor, single point] | –
17 | CCCc1cc(=O)[nH]c(SCC(=O)NCC2COc3ccccc3O2)n1 (centres undefined) | inactive | –
18 | C=C(C)C1CC=C(C)/C(=N/NC(=S)Nc2ccccc2)C1 (centres undefined) | inactive | –
19 | OCC[C@H]1C[C@H](O)[C@@H](O)[C@@]2(CCc3ccccc3O2)O1 | inactive | –
20 | C/C(=N\Nc1cc(C(F)(F)F)ccc1Cl)c1ccncc1 | inconclusive: 13.1 µM [inhibitor, single point] | –
21 | COc1ccc(C(=O)C2CCCN(C3CSCCSC3)C2)cc1OC (centres undefined) | inconclusive: 0.0041 µM [inhibitor, full curve, poor fit] | –
22 | Oc1c(Cl)cc(Cl)cc1/C=N/Nc1ncc(Br)cn1 | active: 14.7 µM | –
23 | CCOc1ccc(N=C/C=C/c2ccccc2)c(O)c1 | inactive | –

Row | SMILES | Potency | activity change, negative = inhibition
24 | COC(=O)CCC(NC(=O)c1cc(C)oc1C)C(=O)OC (centres undefined) | active: 10.4 µM | –
25 | C[N+](C)(C)c1ccc(/C=N/Nc2nc(Cl)c(C#N)c(Cl)c2Cl)cc1 | inconclusive: 1.17 µM [inhibitor, partial curve, poor fit] | –
26 | O=C1CCCc2ccccc2N1Cc1ccc(Cl)cc1 | inconclusive: 0.131 µM [inhibitor, full curve, poor fit] | –
27 | Cc1[nH]c2c(C)cccc2c1CCNC(=O)C1CCCCC1C(=O)OCC(F)(F)F (centres undefined) | inconclusive: 18.5 µM [inhibitor, partial curve, poor fit] | –
28 | COc1ccccc1Nc1nc(NCC(C)C)nc(N)c1[N+](=O)[O-] | inconclusive: 1.47 µM [inhibitor, full curve, poor fit] | –
29 | OCCC1CN(Cc2ccc3cccc(F)c3n2)CCN1Cc1ccccc1 (centres undefined) | inconclusive: 9.28 µM [inhibitor, single point] | –
30 | COc1cccc(CNS(=O)(=O)c2ccc(S(=O)(=O)NC3CC3)cc2)c1 | inconclusive: 14.7 µM [inhibitor, single point] | –
31 | Cc1cccc(-n2nc([N+](=O)[O-])c(N3CCN(C(=O)c4ccco4)CC3)[n+]2[O-])c1 | inconclusive: 18.5 µM [inhibitor, single point] | –
32 | O=C(CCNC(=O)c1ccc(Cl)cc1)Nc1ccccc1N1CCCCC1 | inconclusive: 11.7 µM [inhibitor, single point] | –
33 | CCCOC(=O)c1ccc(NC(=O)c2ccc(Br)o2)cc1 | inconclusive: 9.28 µM [inhibitor, single point] | –
34 | CCC(C)(C)n1nnnc1C(c1ccc2ncccc2c1)N1CCN(c2ccc(O)cc2)CC1 (centres undefined) | inconclusive: 5.22 µM [inhibitor, partial curve, poor fit] | –
35 | COc1ccc(C2CN(C)CC2C(=O)c2ccc(F)cc2)cc1Cl (centres undefined) | inconclusive: 13.1 µM [inhibitor, single point] | –
36 | CCOC(=O)c1sc(N/N=C/c2cccc(C)c2)nc1C | inactive | –
37 | Cc1cc(C)cc(NC(=S)N=Nc2c(O)n(C)c3ccc(S(=O)(=O)N4CCOCC4)cc23)c1 | inconclusive: 1.85 µM [inhibitor, full curve, poor fit] | –
38 | CC(C)(C)OC(=O)N1CCC(c2cc(-c3cccs3)n[nH]2)CC1 | inconclusive: 10.4 µM [inhibitor, single point] | –
39 | Cn1c(CCN2CCCCC2)nc2cc(NC(=O)Nc3ccccc3)ccc21 | inactive | –
40 | COc1ccc(C2CC(=O)c3c([nH]c(C(=O)OC(C)C)c3C)C2)cc1OC (centres undefined) | inactive | –
41 | CCOc1ccc(N2C(=O)CC(NCCNc3ccc(C(=O)c4cccs4)cc3)C2=O)cc1 (centres undefined) | inactive | –
42 | C/C(=N\Nc1nc2ccccc2[nH]1)c1cccs1 | inconclusive: 2.94 µM [inhibitor, full curve, poor fit] | –
43 | O=C1c2cccc3cccc(c23)N1Cc1cccc(F)c1 | inconclusive: 5.22 µM [inhibitor, partial curve, poor fit] | –
44 | Cc1ccc(P(=O)(CC(=O)O)c2ccc(C)cc2)cc1 | inconclusive: 14.7 µM [inhibitor, partial curve, poor fit] | –
45 | CCC1CCCCN1CCCNC(=O)C1CCN(c2ncnc3c2nc2n3CCCCC2)CC1 (centres undefined) | inconclusive: 18.5 µM [inhibitor, single point] | –
46 | CC(=O)N1CCN(c2ccc(NC(=O)c3cccc([N+](=O)[O-])c3)cc2)CC1 | inconclusive: 10.4 µM [inhibitor, single point] | –

Row | SMILES | Potency | activity change, negative = inhibition
47 | CC1CC(C)CN(C(=O)CN2C(=O)NC(c3ccccc3)(c3ccccc3)C2=O)C1 (centres undefined) | inconclusive: 18.5 µM [inhibitor, single point] | –
48 | CC(C)C1Cc2[nH]c(=O)c(C(=O)O)cc2CO1 (centres undefined) | inactive | –
49 | O=c1[nH]c(C2CCN(S(=O)(=O)c3ccc4c(c3)OCCO4)CC2)nc2c1nnn2Cc1ccc(F)cc1 | inactive | –
50 | COc1cc(-c2cc(C(=O)Nc3ccccc3N3CCOCC3)c3ccccc3n2)cc(OC)c1OC | inconclusive: 0.828 µM [inhibitor, partial curve, poor fit] | –
51 | O=S1(=O)CCN2C(=N1)SC1=C2CCN(Cc2ccccc2)C1 | inconclusive: 18.5 µM [inhibitor, single point] | –
52 | COC(=O)c1c(C)[nH]c(O)c1C=Nc1ccc(C(C)C)cc1 | inactive | –
53 | O=C(Nc1ccccc1C(=O)NCc1cccnc1)c1ccccc1F | inconclusive: 3.7 µM [inhibitor, single point] | –
54 | Cc1ccc(C(=O)O)cc1NC(=S)NC(=O)C(c1ccccc1)c1ccccc1 | inconclusive: 3.29 µM [inhibitor, full curve, poor fit] | –
55 | CCc1ccc(NC(=O)CSc2nnc(-c3cnccn3)n2C)cc1 | inconclusive: 18.5 µM [inhibitor, single point] | –
56 | O=C(CSc1nc2ncc(Br)cc2[nH]1)c1ccc([N+](=O)[O-])cc1 | inconclusive: 18.5 µM [inhibitor, single point] | –
57 | COc1ccc(Nc2n[nH]c(N)c2C(N)=O)cc1 | inconclusive: 18.5 µM [inhibitor, single point] | –
58 | Cc1n[nH]c(C)c1NC(=O)c1cc([N+](=O)[O-])ccc1Cl | inconclusive: 2.94 µM [inhibitor, partial curve, poor fit] | –
59 | COc1ccc(Cc2nnc(NC(=O)Nc3ccccc3F)s2)cc1 | inactive | –
60 | N#C/C(=C\c1ccc(Cl)cc1)c1nc2ncccc2[nH]1 | inconclusive: 5.22 µM [inhibitor, partial curve, poor fit] | –
61 | Cc1ccc(NC(=O)C(=O)NCCN2CCN(Cc3ccc([N+](=O)[O-])cc3)CC2)cc1 | active: 0.465 µM | –
62 | CCOc1ccc(-n2c(C)nc3c(cnn3-c3ccc(Cl)cc3)c2=O)cc1 | inactive | –
63 | Cn1c(Cc2cccs2)nnc1SCC(=O)N1CCCc2ccccc21 | inconclusive: 2.08 µM [inhibitor, partial curve] | –
64 | CCCCn1c(N)c(N(CC)C(=O)CSCc2c(C)noc2C)c(=O)[nH]c1=O | inconclusive: 10.4 µM [inhibitor, partial curve, poor fit] | –
65 | O=C(Nc1ccc(N2CCCC2)c(Cl)c1)c1cccnc1 | inconclusive: 6.57 µM [inhibitor, partial curve] | –
66 | Cc1ccc(CN2CC(C(=O)N3CCN(S(=O)(=O)c4ccc(C)cc4C)CC3)CC2=O)cc1 (centres undefined) | inconclusive: 18.5 µM [inhibitor, single point] | –
67 | CC(C)N=c1scc(-c2ccco2)n1/N=C/c1ccc(O)c(O)c1 | inconclusive: 14.7 µM [inhibitor, partial curve, poor fit] | –
68 | CC(=C/C(=O)O)/C=C/c1cccs1 | – | inactive: 0.734% [at 5.75 µM]
69 | C/C=C/c1ccc(OCC(=O)Nc2cc(C(F)(F)F)ccc2N2CCOCC2)c(OC)c1 | inconclusive: 1.65 µM [inhibitor, partial curve, poor fit] | –

Three compounds from above, arranged by molecular weight, rising.
Row | SMILES | Potency | activity change, negative = inhibition
48 | CC(C)C1Cc2[nH]c(=O)c(C(=O)O)cc2CO1 (centres undefined) | inactive | –
53 | O=C(Nc1ccccc1C(=O)NCc1cccnc1)c1ccccc1F | inconclusive: 3.7 µM [inhibitor, single point] | –
69 | C/C=C/c1ccc(OCC(=O)Nc2cc(C(F)(F)F)ccc2N2CCOCC2)c(OC)c1 | inconclusive: 1.65 µM [inhibitor, partial curve, poor fit] | –
